Record: PubChem BioAssay AID1259308 (NCATS, 2017)
Shown is one part, drawn at random, of about 59,000 reagents. About 1,510 of them (2.6%) count as active. 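Calls use total luciferase alone and ignore viability, so some active siRNAs may act by altering cell number.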 Entries without a mark were called inactive. The numbers tell different reagents against one gene apart. Further read-outs or replicates are left out here.

Purpose: 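Genes whose loss raises luciferase production in HEK293 cells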 (primary screen)
Cell system: human HEK293 embryonic kidney cells stably expressing firefly luciferase (HEK-CMV-Luc2-Hygro)
Reagents: single siRNA against human genes, 0.8 pmol siRNA per well
Duration: 72 h
Measured: 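Reporter luminescence and viable-cell signal on separate replicate plates, given as percent of non-targeting control and median/MAD z-scores, plus per-cell luciferase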
Direction: total luciferase, z-score and total luciferase, % of control: higher = more reporter protein produced
Call rule: 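Active when the median/MAD z-score for overall luciferase is greater than 3; a gene was taken forward for validation with new siRNAs if at least two of its three siRNAs passed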
Meaning of the calls: active = raised luciferase; inactive = no rise

Depletion of GLDN (gliomedin) #1 resulted in: total luciferase, z-score 1.68; total luciferase, % of control 115.
Silencing of GLDN (gliomedin) #2 resulted in: total luciferase, z-score 0.147; total luciferase, % of control 84.8.
GLDN (gliomedin) #3 gave total luciferase, z-score -0.436; total luciferase, % of control 73.2.
GNA11 (G protein subunit alpha 11) #1 gave total luciferase, z-score 1.16; total luciferase, % of control 105.
For GNA11 (G protein subunit alpha 11) #2 the deposit lists total luciferase, z-score -2.81; total luciferase, % of control 26.
For GNA11 (G protein subunit alpha 11) #3, the entry reads total luciferase, z-score -1.23; total luciferase, % of control 57.4.
With knock-down of IPO9 (importin 9) #1, the screen gave total luciferase, z-score 0.578; total luciferase, % of control 93.4.
IPO9 (importin 9) #2 showed total luciferase, z-score 0.711; total luciferase, % of control 96.
Against IPO9 (importin 9) #3 the deposit lists total luciferase, z-score -0.448; total luciferase, % of control 73.
Silencing of SP100 (SP100 nuclear body protein) #1 resulted in: total luciferase, z-score 0.0103; total luciferase, % of control 82.1.
After knock-down of SP100 (SP100 nuclear body protein) #2 the results were total luciferase, z-score -0.0668; total luciferase, % of control 80.6.
Silencing of SP100 (SP100 nuclear body protein) #3 gave: total luciferase, z-score -0.667; total luciferase, % of control 68.6.
For TPPP2 (tubulin polymerization promoting protein family member 2) #1 the deposit lists total luciferase, z-score 0.242; total luciferase, % of control 86.7.
Against TPPP2 (tubulin polymerization promoting protein family member 2) #2, the entry reads total luciferase, z-score 0.516; total luciferase, % of control 92.2.
TPPP2 (tubulin polymerization promoting protein family member 2) #3 scored total luciferase, z-score 0.162; total luciferase, % of control 85.1.
Against ZXDB (zinc finger X-linked duplicated B) #1, the values are total luciferase, z-score -0.928; total luciferase, % of control 63.4.
Against ZXDB (zinc finger X-linked duplicated B) #2, the entry reads total luciferase, z-score 0.723; total luciferase, % of control 96.3.
With knock-down of ZXDB (zinc finger X-linked duplicated B) #3 the results were total luciferase, z-score 0.849; total luciferase, % of control 98.8.
LINC02898 (long independently transcribed non-coding RNA 2898) #1 gave total luciferase, z-score 0.254; total luciferase, % of control 86.9.
LINC02898 (long independently transcribed non-coding RNA 2898) #2 showed total luciferase, z-score -0.556; total luciferase, % of control 70.8.
With knock-down of LINC02898 (long independently transcribed non-coding RNA 2898) #3, the record shows total luciferase, z-score -0.0565; total luciferase, % of control 80.8.
BCL2A1 (BCL2 related protein A1) #1 showed total luciferase, z-score 0.378; total luciferase, % of control 89.4.
With knock-down of BCL2A1 (BCL2 related protein A1) #2, the screen gave total luciferase, z-score 0.515; total luciferase, % of control 92.1.
BCL2A1 (BCL2 related protein A1) #3 showed total luciferase, z-score 0.761; total luciferase, % of control 97.
After knock-down of GATA3 (GATA binding protein 3) #1 the results were total luciferase, z-score 1.92; total luciferase, % of control 120.
Against GATA3 (GATA binding protein 3) #2, the values are total luciferase, z-score -0.773; total luciferase, % of control 66.5.
After knock-down of GATA3 (GATA binding protein 3) #3, the record shows total luciferase, z-score -0.16; total luciferase, % of control 78.7.
ARSD (arylsulfatase D) #1 gave total luciferase, z-score -0.324; total luciferase, % of control 75.4.
Silencing of ARSD (arylsulfatase D) #2 gave: total luciferase, z-score 1.1; total luciferase, % of control 104.
Silencing of ARSD (arylsulfatase D) #3 came out at: total luciferase, z-score -1.83; total luciferase, % of control 45.6.
TSHB (thyroid stimulating hormone subunit beta) #1 gave total luciferase, z-score 0.671; total luciferase, % of control 95.2.
Silencing of TSHB (thyroid stimulating hormone subunit beta) #2 gave: total luciferase, z-score 0.0484; total luciferase, % of control 82.8.
After knock-down of TSHB (thyroid stimulating hormone subunit beta) #3, the screen gave total luciferase, z-score -0.711; total luciferase, % of control 67.7.

Only “total luciferase, z-score”, for 2 of the entries above:
TPPP2 (tubulin polymerization promoting protein family member 2) #3	0.162
ZXDB (zinc finger X-linked duplicated B) #1	-0.928
